# PubChem BioAssay AID2685 (National Center for Advancing Translational Sciences (NCATS), 2010)
# The list shows a part of the results. Further columns of the screen follow, without active or inactive calls. The list favours compounds with an active or inconclusive main result. Potencies come from curve fits of mixed quality, noted in brackets.
# Assay: qHTS Assay for Lipid Storage Modulators in Drosophila S3 Cells;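 on cell number change: cells counted by Cell Tracker Red CMTPX staining in the red channel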
# Settings: BODIPY lipid droplet fluorescence, 18-24 h; for cell number change: measured here: cell count max response, cells fed with added oleic acid
# Summary of the method: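 Drosophila S3 cells got compounds at several concentrations plus oleic acid (400 uM solution). Laser-scanning cytometry with 488 nm excitation read lipid droplets at 500-530 nm and cells at 575-640 nm. Percent activity was relative to 20 uM Triacsin C.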
# [1] = measured here: cell number channel AC50, cells fed with added oleic acid
# [2] = measured here: lipid fluorescence (Fed channel) AC50, cells fed with added oleic acid
SMILES,cell number change,AC50 [1],AC50 [2]
Cc1ccc(-c2nc(=S)c3c(n2CC2CCCO2)CC(C)(C)OC3)cc1 (stereo not drawn),70.6%,"29.1 µM [rising, single point]",–
O=C(Nc1ccc(S(=O)(=O)Nc2ccccn2)cc1)c1ccccc1,24.3%,–,"20.6 µM [falling, single point]"
Cc1ccc(OCCSCc2nnc(NC(=O)Nc3cccc(Cl)c3)s2)cc1,-13.5%,"0.0231 µM [falling, full curve, poor fit]","2.31 µM [falling, full curve]"
CC(=O)NC1=NN(C(C)=O)C(c2ccccc2)S1 (stereo not drawn),3.17%,–,–
Cc1cccc(NC(=O)CCNC(=O)c2ccccc2)c1,-6.26%,–,"0.103 µM [rising, full curve, poor fit]"
O=C(CCc1nc2ccccc2c(=O)[nH]1)Nc1nc(-c2cccs2)cs1,4.87%,–,–
CC1(C)CC(NC(=O)CCc2nnc(CCCCc3ccccc3)o2)CCO1 (stereo not drawn),4.77%,–,–
CCn1c(SCC(=O)Nc2ccc(N3CCOCC3)cc2)nnc1-c1ccncc1,7.69%,"0.13 µM [falling, full curve, poor fit]",–
Cc1cccc(C)c1NC(=O)CN1C(=O)N(C)Cc2ccccc21,-30.4%,–,–
CCC(C)(C)NC(=O)C(c1sccc1C)N(Cc1ccco1)C(=O)c1csnn1 (stereo not drawn),-15.4%,–,"5.17 µM [falling, single point]"
CC12CN3CC(C)(CN(C1)C3c1ccc(F)cc1)C2 (stereo not drawn),–,–,"14.6 µM [falling, partial curve]"
Cc1nnc(NC(=O)CSc2ccc(-c3ccc(Cl)cc3)nn2)s1,-14.2%,"0.259 µM [rising, partial curve]",–
Cc1ccnc(NS(=O)(=O)c2ccc(NC(=O)c3ccc(Cl)cc3[N+](=O)[O-])cc2)n1,-24.6%,–,"4.61 µM [rising, partial curve, poor fit]"
CC1CCN(CCOc2cccc(Br)c2)CC1,-4.9%,–,–
Cc1cc(C(=O)N2CCN(C(=O)C3CCCO3)CC2)no1 (stereo not drawn),-9.45%,–,"4.61 µM [falling, full curve, poor fit]"
COc1ccc(OCC(O)CN2CCOCC2)cc1 (stereo not drawn),13.5%,–,"7.31 µM [falling, partial curve, poor fit]"
O=C1C2C3C=CC(C4CC34)C2C(=O)N1/N=C/c1ccc(-c2ccc(Cl)cc2[N+](=O)[O-])o1 (stereo not drawn),10.4%,–,"1.64 µM [falling, partial curve, poor fit]"
CCCCc1nc(SCC(=O)N2CCCCC2)c2c(=O)n(C)c(=O)n(C)c2n1,-10.1%,–,–
CC(=O)c1cccc(NC(=O)C2CCCN(S(=O)(=O)c3cccc4nonc34)C2)c1 (stereo not drawn),109%,"29.1 µM [rising, single point]","29.1 µM [rising, single point]"

# Single records (already shown). Order of values: cell number change | AC50 [1] | AC50 [2]
# CC1CCN(CCOc2cccc(Br)c2)CC1 reads -4.9% | – | –
# O=C(CCc1nc2ccccc2c(=O)[nH]1)Nc1nc(-c2cccs2)cs1 reads 4.87% | – | –
